Reference: publication PMC6923413
These are yes or no findings as the source states them, for the method shown. Binding seen in cells or lysates may run through a third protein. Some entries that bind do so weakly or less than the wild type.

Target: T1, IκB kinase α (IKKα) (human (endogenous in HT29)) (UniProt O15111)
T1 sequence: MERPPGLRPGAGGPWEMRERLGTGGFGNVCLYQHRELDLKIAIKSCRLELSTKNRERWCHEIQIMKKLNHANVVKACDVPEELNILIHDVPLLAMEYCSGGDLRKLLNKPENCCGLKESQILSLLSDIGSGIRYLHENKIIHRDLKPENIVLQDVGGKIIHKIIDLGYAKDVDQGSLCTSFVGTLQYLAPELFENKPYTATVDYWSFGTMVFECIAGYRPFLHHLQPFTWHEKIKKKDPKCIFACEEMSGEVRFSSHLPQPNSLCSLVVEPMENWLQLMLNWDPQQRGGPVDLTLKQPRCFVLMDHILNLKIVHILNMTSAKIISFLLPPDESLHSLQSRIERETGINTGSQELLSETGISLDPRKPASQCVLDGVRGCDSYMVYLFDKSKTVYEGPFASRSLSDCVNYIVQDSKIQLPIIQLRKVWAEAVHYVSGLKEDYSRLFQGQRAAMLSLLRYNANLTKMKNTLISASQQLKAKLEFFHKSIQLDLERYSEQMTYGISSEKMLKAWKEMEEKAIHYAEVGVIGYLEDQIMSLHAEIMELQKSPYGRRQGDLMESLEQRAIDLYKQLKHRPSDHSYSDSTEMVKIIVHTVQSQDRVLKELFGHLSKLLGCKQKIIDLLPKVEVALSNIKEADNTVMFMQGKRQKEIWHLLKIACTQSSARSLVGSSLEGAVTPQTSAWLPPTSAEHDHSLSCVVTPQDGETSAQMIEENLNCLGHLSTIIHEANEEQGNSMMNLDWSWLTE
Assay: co-IP; 0.5 µg anti-IKKα antibody (or naïve rabbit IgG) on Protein A/G coated wells; 500 µg unstimulated HT29 lysate; washed twice with 50 mM Tris (pH 7.5), 150 mM NaCl and twice with kinase wash buffer; immunoblot for IKKα and IKKβ

B1: IκB kinase β (IKKβ) (enzyme, UniProt O14920 1-756)
chain: MSWSPSLTTQTCGAWEMKERLGTGGFGNVIRWHNQETGEQIAIKQCRQELSPRNRERWCLEIQIMRRLTHPNVVAARDVPEGMQNLAPNDLPLLAMEYCQGGDLRKYLNQFENCCGLREGAILTLLSDIASALRYLHENRIIHRDLKPENIVLQQGEQRLIHKIIDLGYAKELDQGSLCTSFVGTLQYLAPELLEQQKYTVTVDYWSFGTLAFECITGFRPFLPNWQPVQWHSKVRQKSEVDIVVSEDLNGTVKFSSSLPYPNNLNSVLAERLEKWLQLMLMWHPRQRGTDPTYGPNGCFKALDDILNLKLVHILNMVTGTIHTYPVTEDESLQSLKARIQQDTGIPEEDQELLQEAGLALIPDKPATQCISDGKLNEGHTLDMDLVFLFDNSKITYETQISPRPQPESVSCILQEPKRNLAFFQLRKVWGQVWHSIQTLKEDCNRLQQGQRAAMMNLLRNNSCLSKMKNSMASMSQQLKAKLDFFKTSIQIDLEKYSEQTEFGITSDKLLLAWREMEQAVELCGRENEVKLLVERMMALQTDIVDLQRSPMGRKQGGTLDDLEEQARELYRRLREKPRDQRTEGDSQEMVRLLLQAIQSFEKKVRVIYTQLSKTVVCKQKALELLPKVEEVVSLMNEDEKTVVRLQEKRQKELWNLLKIACSKVRGPVSGSPDSMNASRLSQPGQLMSQPSTASNSLPEPAKKSEELVAEAHNLCTLLENAIQDTVREQDQSFTALDWSWLQTEEEEHSCLEQAS
- binding: binds
